In PMC7861563, “FOXP1 Interacts with MyoD to Repress its Transcription and Myoblast Conversion” (Journal of cellular signaling, 2021):

Columns and labels:
[1] = molecular target: MYC-tagged FOXP1, in vitro translated (murine); experiment: co-IP; MYC-tagged FOXP1 and HA-tagged partners transcribed and translated in rabbit reticulocyte lysates, non-dissociating conditions; Co-IP by FOXP1, immunoblot with anti-HA mAb
[2] = molecular target: FOXP1-MyoD complex on the MCK enhancer probe (murine | not stated); experiment: native gel or EMSA; full-length proteins synthesized in reticulocyte lysates; super-shift of complexes on the 32P-labeled MCK enhancer probe; 4% nondenaturing polyacrylamide gel in 0.25X TBE

B1: HA-FOXP3, in vitro translated (protein, UniProt Q99JB6 1-429)
chain: MPNPRPAKPMAPSLALGPSPGVLPSWKTAPKGSELLGTRGSGGPFQGRDLRSGAHTSSSLNPLPPSQLQLPTVPLVMVAPSGARLGPSPHLQALLQDRPHFMHQLSTVDAHAQTPVLQVRPLDNPAMISLPPPSAATGVFSLKARPGLPPGINVASLEWVSREPALLCTFPRSGTPRKDSNLLAAPQGSYPLLANGVCKWPGCEKVFEEPEEFLKHCQADHLLDEKGKAQCLLQREVVQSLEQQLELEKEKLGAMQAHLAGKMALAKAPSVASMDKSSCCIVATSTQGSVLPAWSAPREAPDGGLFAVRRHLWGSHGNSSFPEFFHNMDYFKYHNMRPPFTYATLIRWAILEAPERQRTLNEIYHWFTRMFAYFRNHPATWKNAIRHNLSLHKCFVRVESEKGAVWTVDEFEFRKKRSQRPNKCSNPCP
[1]
  binding: binds

B2: ID1, in vitro translated (protein, UniProt P20067 1-168)
chain: MKVASGSAAAAAGPSCSLKAGRTAGEVVLGLSEQSVAISRCAGTRLPALLDEQQVNVLLYDMNGCYSRLKELVPTLPQNRKVSKVEILQHVIDYIRDLQLELNSESEVGTTGGRGLPVRAPLSTLNGEISALAAEVRSESEYYIILQWETEATGGGCPPSLLFRRIAI
[2]
  binding: binds

B3: HA-MRF4, in vitro translated (protein, UniProt P15375 1-242)
chain: MMMDLFETGSYFFYLDGENVTLQPLEVAEGSPLYPGSDGTLSPCQDQMPQEAGSDSSGEEHVLAPPGLQPPHCPGQCLIWACKTCKRKSAPTDRRKAATLRERRRLKKINEAFEALKRRTVANPNQRLPKVEILRSAISYIERLQDLLHRLDQQEKMQELGVDPYSYKPKQEILEGADFLRTCSPQWPSVSDHSRGLVITAKEGGANVDASASSSLQRLSSIVDSISSEERKLPSVEEVVEK
[1]
  binding: no binding

B4: HA-MyoG, in vitro translated (protein, UniProt P12979 1-224)
chain: MELYETSPYFYQEPHFYDGENYLPVHLQGFEPPGYERTELSLSPEARGPLEEKGLGTPEHCPGQCLPWACKVCKRKSVSVDRRRAATLREKRRLKKVNEAFEALKRSTLLNPNQRLPKVEILRSAIQYIERLQALLSSLNQEERDLRYRGGGGPQPMVPSECNSHSASCSPEWGNALEFGPNPGDHLLAADPTDAHNLHSLTSIVDSITVEDMSVAFPDETMPN
[1]
  binding: no binding

No constants are given. Whether binding was seen depends on the method and setting. Binding calls can cover weak binding; strength is not graded here. For some of these results: Binding seen in cells or lysates may run through a third protein. For some of these results: Tags and fused reporters may be left off the sequences shown.
